Data as given in PubChem BioAssay AID743454 (Peter MacCallum Cancer Centre, 2014)
Screen: 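Genes whose loss kills vorinostat-resistant colon cancer cells under vorinostat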 (primary screen). System: human HCT116-VR colon cancer cells, selected for vorinostat resistance. Knock-down reagent: siRNA pool against human genes, 40 nM siRNA pool. Timing: vorinostat for 24 h, read-out about 72 h after transfection. Treatment: vorinostat at 2.5 µM final. Read-out: 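Cell viability by CellTiter-Fluor and caspase 3/7 activity by luminescence, each scaled to mock wells per plate, duplicates averaged, then robust z-scored over all plates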. Direction: viability robust z-score: higher = more viable cells than screen typical; caspase robust z-score: higher = more caspase 3/7 activity than screen typical. Rule for the call: 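Hits are knock-downs in viability class RV1/RV2 or caspase class CA1/CA2, excluding ones that killed cells in the no-drug cell-count arm; hits then retested with single siRNAs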.
The whole screen tested about 18,000 reagents; shown is an unselected part. 450 of all reagents (2.5%) count as active. 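Single biological run; no consistent viability z cut-off exists, so the class columns, not z-scores, define the calls.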 Entries without a mark were called inactive. No sequences are given here.

KCNT1 (GeneID 57582) gave viability hit class no change; caspase hit class no change; viability robust z-score -1.46; caspase robust z-score 4.91.
With knock-down of ZEB1 (GeneID 6935), the record shows viability hit class no change; caspase hit class no change; viability robust z-score 0.7; caspase robust z-score 0.05.
With knock-down of PIH1D2 (GeneID 120379), the record shows viability hit class no change; caspase hit class no change; viability robust z-score -0.72; caspase robust z-score 4.6.
DSEL (GeneID 92126) scored viability hit class no change; caspase hit class no change; viability robust z-score 0.22; caspase robust z-score -0.86.
WFDC1 (GeneID 58189) scored viability hit class no change; caspase hit class no change; viability robust z-score 0.52; caspase robust z-score 1.75.
Against IGDCC3 (GeneID 9543), the values are viability hit class no change; caspase hit class no change; viability robust z-score -1.84; caspase robust z-score 2.02.
TAOK1 (GeneID 57551) gave viability hit class no change; caspase hit class no change; viability robust z-score -1.63; caspase robust z-score -0.28.
Against TMEM18 (GeneID 129787), the entry reads viability hit class no change; caspase hit class no change; viability robust z-score 1.19; caspase robust z-score -0.9.
With knock-down of AOAH (GeneID 313), the record shows viability hit class no change; caspase hit class no change; viability robust z-score 0.32; caspase robust z-score -0.22.
UPK3A (GeneID 7380) showed viability hit class no change; caspase hit class no change; viability robust z-score 0.7; caspase robust z-score -0.1.
Against GSN (GeneID 2934), the values are viability hit class no change; caspase hit class no change; viability robust z-score 0.46; caspase robust z-score 1.02.
Knock-down of COMTD1 (GeneID 118881) resulted in: viability hit class no change; caspase hit class no change; viability robust z-score -0.78; caspase robust z-score -0.65.
With knock-down of HTR6 (GeneID 3362), the record shows viability hit class no change; caspase hit class no change; viability robust z-score 0.65; caspase robust z-score 0.31.
For SPN (GeneID 6693), the values are viability hit class no change; caspase hit class no change; viability robust z-score -1.06; caspase robust z-score 3.1.
For TSEN34 (GeneID 79042) the deposit lists viability hit class no change; caspase hit class no change; viability robust z-score 1.51; caspase robust z-score 0.94.
PTPRA (GeneID 5786) showed viability hit class no change; caspase hit class no change; viability robust z-score 0.82; caspase robust z-score 0.13.
SLC30A3 (GeneID 7781) scored viability hit class no change; caspase hit class no change; viability robust z-score 0.54; caspase robust z-score 1.19.
PCM1 (GeneID 5108) showed viability hit class no change; caspase hit class no change; viability robust z-score -0.38; caspase robust z-score -0.91.
MMD (GeneID 23531) scored viability hit class no change; caspase hit class no change; viability robust z-score -0.1; caspase robust z-score -0.71.
Silencing of TCEA3 (GeneID 6920) resulted in: viability hit class no change; caspase hit class no change; viability robust z-score 0.24; caspase robust z-score -0.09.
KLHL20 (GeneID 27252) showed viability hit class no change; caspase hit class no change; viability robust z-score 1.09; caspase robust z-score 0.06.

2 entries from above, limited to “viability hit class”.
MMD (GeneID 23531) = no change
TCEA3 (GeneID 6920) = no change
